Patent US7883730B2, “Rumen protected lysine” (Zinpro Corporation, priority 2007, dated 2011)

Test system: Lactating Holstein Dairy Cows
Assay: Feeding evaluation: lactation responses to N-Benzylidene-L-Lysine
Assay type: in vivo
Conditions: control diet plus 40 g Lys from N-Benzylidene-L-Lysine, 14 days
From the text: Evaluation of Feeding N-Benzylidene-L-Lysine Using Lactating Holstein Dairy Cows
All cows received the same base diet. Cows were assigned to one of two treatments: (1) control, (2) control+N-Benzylidene-L-Lysine (TrTA). N-Benzylidene-L-Lysine was supplemented at a rate to supply 40 g of Lys when cows consumed 53.0 lb dry matter/d. The control diet was formulated to be deficient of lysine. “P” refers to the probability value (p-value).

How did the DMI turn out when NCCCC[C@H](N=Cc1ccccc1)C(=O)O [Trt A, N-Benzylidene-L-Lysine] was run?
The DMI was 53.1 lbs/d.
